Laboratory results taken from the supplement of paper PMC4604168 (melanoma cell lines).
Some of the results follow. Many values rest on one well or one pass, so single values are uncertain.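 Imaging used 1,536-well plates; nuclei positive for cleaved PARP by antibody were divided by total DNA-stained nuclei to yield the apoptosis fraction. Doses for screening kept most cells viable, and cell lines differ markedly in resting and induced cleaved-PARP levels.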

Each compound was assayed on MZ2-MEL (assay: cleaved PARP positive nuclei fraction relative to DMSO control; melanoma cells; higher = more apoptosis). Conditions: library dose: low library concentration; 72 h.

SMILES	cleaved PARP positive nuclei fraction [%]
C=C(c1ccc(C(=O)O)cc1)c1cc2c(cc1C)C(C)(C)CCC2(C)C [Bexarotene] + CC(C)(C)c1cnc(CSc2cnc(NC(=O)C3CCNCC3)s2)o1 [SNS-032] (first compound 2 µM, partner dose 0.01 µM)	119
Cc1cc(Nc2cc(N3CCN(C)CC3)nc(/C=C/c3ccccc3)n2)n[nH]1 + COc1cc(N2CCC(N3CCN(C)CC3)CC2)ccc1Nc1ncc(Cl)c(Nc2ccccc2S(=O)(=O)C(C)C)n1 [NVP-TAE684] (first compound 0.04 µM, partner dose 0.08 µM)	28.3
O=C(O)c1ccc2c(c1)nc(Nc1cccc(Cl)c1)c1ccncc12 + Oc1nc(-c2ccc(C(F)(F)F)cc2)nc2c1CSCC2 [XAV939] (first compound 0.4 µM, partner dose 2 µM)	138
Nc1ccn([C@@H]2O[C@H](CO)[C@@H](O)C2(F)F)c(=O)n1 [gemcitabine] + COC(=O)c1sccc1S(=O)(=O)Nc1ccc(Nc2ccccc2)cc1OC [GSK0660] (first compound 0.0004 µM, partner dose 1 µM)	117
CNC(=O)c1cc(Oc2ccc(NC(=O)Nc3ccc(Cl)c(C(F)(F)F)c3)cc2)ccn1 [sorafenib] + CC(C)(C)c1cnc(CSc2cnc(NC(=O)C3CCNCC3)s2)o1 [SNS-032] (first compound 0.4 µM, partner dose 0.01 µM)	92.6
Nc1ccn([C@@H]2O[C@H](CO)[C@@H](O)C2(F)F)c(=O)n1 [gemcitabine] + OCCn1cc(-c2cnc3nnn(Cc4ccc5ncccc5c4)c3n2)cn1 [PF04217903] (first compound 0.0004 µM, partner dose 1 µM)	133
C=C(c1ccc(C(=O)O)cc1)c1cc2c(cc1C)C(C)(C)CCC2(C)C [Bexarotene] + Cc1ccc(NC(=O)c2cccc(N(C)C)c2)cc1NC(=O)c1ccc(O)cc1 [ZM336372] (first compound 2 µM, partner dose 2 µM)	152
Nc1nc(F)nc2c1ncn2[C@@H]1O[C@H](CO)[C@@H](O)[C@@H]1O [fludarabine] + C=CCn1c(=O)c2cnc(Nc3ccc(N4CCN(C)CC4)cc3)nc2n1-c1cccc(C(C)(C)O)n1 [MK1775] (first compound 0.2 µM, partner dose 0.02 µM)	123
Cc1cc(Nc2cc(N3CCN(C)CC3)nc(/C=C/c3ccccc3)n2)n[nH]1 + Cn1cc(/C=C2\C(=O)Nc3cccnc32)c2ccccc21 [GW441756] (first compound 0.04 µM, partner dose 0.4 µM)	151
CC(C)C[C@H](NC(=O)[C@H](Cc1ccccc1)NC(=O)c1cnccn1)B(O)O [Bortezomib] + c1cc(-c2cnn3cc(-c4ccc(OCCN5CCCCC5)cc4)cnc23)ccn1 [Dorsomorphin] (first compound 0.001 µM, partner dose 0.4 µM)	370
Nc1ncn([C@H]2C[C@H](O)[C@@H](CO)O2)c(=O)n1 [decitabine] + Cc1cc([N+](=O)[O-])ccc1NS(=O)(=O)c1cc(Cl)ccc1Cl [FH535] (first compound 0.1 µM, partner dose 1 µM)	96.1
Nc1ncn([C@H]2C[C@H](O)[C@@H](CO)O2)c(=O)n1 [decitabine] + O=C(Nc1cccc(Cl)c1)Nc1ncc(CCNc2ncnc3ccsc23)s1 [SNS314] (first compound 0.1 µM, partner dose 0.0008 µM)	146
CS(=O)(=O)CCNCc1ccc(-c2ccc3ncnc(Nc4ccc(OCc5cccc(F)c5)c(Cl)c4)c3c2)o1 [lapatinib] + COc1ccc2c(c1)CCC1C2CCC2(C)C(NCCCCCCN3C(=O)C=CC3=O)CCC12 [U73122] (first compound 0.8 µM, partner dose 0.4 µM)	83.4
Cc1cc(Nc2cc(N3CCN(C)CC3)nc(/C=C/c3ccccc3)n2)n[nH]1 + CCCCCCCCCCCC1=C(O)C(=O)C=C(O)C1=O [Embelin] (first compound 0.04 µM, partner dose 1.2 µM)	56.9
C[C@@H](Oc1cc(-c2cnn(C3CCNCC3)c2)cnc1N)c1c(Cl)ccc(F)c1Cl [Crizotinib] + Cc1cc([N+](=O)[O-])ccc1NS(=O)(=O)c1cc(Cl)ccc1Cl [FH535] (first compound 0.2 µM, partner dose 1 µM)	233
Nc1ccn([C@@H]2O[C@H](CO)[C@@H](O)C2(F)F)c(=O)n1 [gemcitabine] + O=C(Nc1cccc(Cl)c1)Nc1ncc(CCNc2ncnc3ccsc23)s1 [SNS314] (first compound 0.0004 µM, partner dose 0.0008 µM)	186

SMILES	cleaved PARP positive nuclei fraction [%]
O=C(O)[C@@H]1[O][Sb](=[O])([O][Sb]2(=[O])[O][C@H]([C@H](O)CO)[C@H](O)[C@H](C(=O)O)[O]2)[O][C@H]([C@H](O)CO)[C@@H]1O (stereo partly specified) [stibogluconate] + CC(C)CCN1c2nc(Nc3cc(F)c(O)c(F)c3)ncc2N(C)C(=O)C1C [BID1870] (first compound 2 µM, partner dose 0.2 µM)	98.8
C=C(c1ccc(C(=O)O)cc1)c1cc2c(cc1C)C(C)(C)CCC2(C)C [Bexarotene] + COc1ccc2c(c1)CCC1C2CCC2(C)C(NCCCCCCN3C(=O)C=CC3=O)CCC12 [U73122] (first compound 2 µM, partner dose 0.4 µM)	124
C=C(c1ccc(C(=O)O)cc1)c1cc2c(cc1C)C(C)(C)CCC2(C)C [Bexarotene] + Oc1nc(-c2ccc(C(F)(F)F)cc2)nc2c1CSCC2 [XAV939] (first compound 2 µM, partner dose 2 µM)	103
CS(=O)(=O)CCNCc1ccc(-c2ccc3ncnc(Nc4ccc(OCc5cccc(F)c5)c(Cl)c4)c3c2)o1 [lapatinib] + NC(=O)Nc1cc(-c2cccc(F)c2)sc1C(=O)N[C@H]1CCCNC1 [AZD7762] (first compound 0.8 µM, partner dose 0.02 µM)	164
O=C(O)[C@@H]1[O][Sb](=[O])([O][Sb]2(=[O])[O][C@H]([C@H](O)CO)[C@H](O)[C@H](C(=O)O)[O]2)[O][C@H]([C@H](O)CO)[C@@H]1O (stereo partly specified) [stibogluconate] + CN(NC(=O)CC(=O)NN(C)C(=S)c1ccccc1)C(=S)c1ccccc1 [STA4783] (first compound 2 µM, partner dose 0.006 µM)	116
CCCS(=O)(=O)Nc1ccc(F)c(C(=O)c2c[nH]c3ncc(Cl)cc23)c1F + COc1ccc(COc2ccc(Cc3cnc(N)nc3N)cc2OC)cc1 [GW2580] (first compound 0.08 µM, partner dose 1 µM)	109
Nc1ncn([C@H]2C[C@H](O)[C@@H](CO)O2)c(=O)n1 [decitabine] + CCc1ccc(CCOc2ccc(CC3SC(=O)NC3=O)cc2)nc1 [pioglitazone] (first compound 0.1 µM, partner dose 2 µM)	96.6
CN1CCN(c2ccc3nc(-c4c(N)c5c(F)cccc5[nH]c4=O)[nH]c3c2)CC1 [Dovitinib] + CN(NC(=O)CC(=O)NN(C)C(=S)c1ccccc1)C(=S)c1ccccc1 [STA4783] (first compound 0.1 µM, partner dose 0.006 µM)	43.6
Nc1ccn([C@@H]2O[C@H](CO)[C@@H](O)C2(F)F)c(=O)n1 [gemcitabine] + O=c1cc(-c2cccc3c2Sc2ccccc2S3)oc(N2CCOCC2)c1 [KU55933] (first compound 0.0004 µM, partner dose 1 µM)	179
CCCS(=O)(=O)Nc1ccc(F)c(C(=O)c2c[nH]c3ncc(Cl)cc23)c1F + COc1cc(Nc2ncc(F)c(Nc3ccc4c(n3)NC(=O)C(C)(C)O4)n2)cc(OC)c1OC [Tamatinib] (first compound 0.08 µM, partner dose 0.4 µM)	175
Cn1c(=O)n(-c2ccc(C(C)(C)C#N)cc2)c2c3cc(-c4cnc5ccccc5c4)ccc3ncc21 + Oc1cc(-c2nc(-c3ccccc3)[nH]c2-c2ccncc2)ccc1Cl [L779450] (first compound 0.004 µM, partner dose 0.2 µM)	83.7
CN1CCN(c2ccc3nc(-c4c(N)c5c(F)cccc5[nH]c4=O)[nH]c3c2)CC1 [Dovitinib] + COc1ccc(COc2ccc(Cc3cnc(N)nc3N)cc2OC)cc1 [GW2580] (first compound 0.1 µM, partner dose 1 µM)	163
C=C(c1ccc(C(=O)O)cc1)c1cc2c(cc1C)C(C)(C)CCC2(C)C [Bexarotene] + CCc1ccc(CCOc2ccc(CC3SC(=O)NC3=O)cc2)nc1 [pioglitazone] (first compound 2 µM, partner dose 2 µM)	116
Cc1cc(Nc2cc(N3CCN(C)CC3)nc(/C=C/c3ccccc3)n2)n[nH]1 + CC(C)CCN1c2nc(Nc3cc(F)c(O)c(F)c3)ncc2N(C)C(=O)C1C [BID1870] (first compound 0.04 µM, partner dose 0.2 µM)	68.8
CN1CCN(c2ccc3nc(-c4c(N)c5c(F)cccc5[nH]c4=O)[nH]c3c2)CC1 [Dovitinib] + CN(C)S(=O)(=O)c1ccc2c(c1)/C(=C/c1cc3c([nH]1)CCCC3)C(=O)N2 [SU6656] (first compound 0.1 µM, partner dose 0.4 µM)	181

As entered above.
Entry of Cc1cc(Nc2cc(N3CCN(C)CC3)nc(/C=C/c3ccccc3)n2)n[nH]1 + CC(C)CCN1c2nc(Nc3cc(F)c(O)c(F)c3)ncc2N(C)C(=O)C1C [BID1870] (first compound 0.04 µM, partner dose 0.2 µM) under cleaved PARP positive nuclei fraction [%]: 68.8
Entry of CCCS(=O)(=O)Nc1ccc(F)c(C(=O)c2c[nH]c3ncc(Cl)cc23)c1F + COc1cc(Nc2ncc(F)c(Nc3ccc4c(n3)NC(=O)C(C)(C)O4)n2)cc(OC)c1OC [Tamatinib] (first compound 0.08 µM, partner dose 0.4 µM) under cleaved PARP positive nuclei fraction [%]: 175
